Measured values as given in PubChem BioAssay AID2685 (National Center for Advancing Translational Sciences (NCATS), 2010).
The other results are listed elsewhere or left out. Shown are side measurements of this screen, not its main read-out; they come without a call. Most of these compounds were active or inconclusive in the main read-out, so they are no random draw. Words in brackets tell the shape of the fitted curve; partial curves, single points and poor fits give uncertain potencies.

Assay: qHTS Assay for Lipid Storage Modulators in Drosophila S3 Cells;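 on cell number change: cells counted by Cell Tracker Red CMTPX staining in the red channel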
Settings: BODIPY lipid droplet fluorescence, 18-24 h; for cell number change: measured here: cell count max response, cells fed with added oleic acid
In short: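 Laser-scanning cytometry quantifies lipid droplet accumulation (500–530 nm total intensity; droplet/cell object ratio) in oleic acid-fed (400 uM added) Drosophila S3 cells treated with a concentration series. 20 uM Triacsin C defined 100% inhibition.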

[1] = measured here: lipid fluorescence (Fed channel) AC50, cells fed with added oleic acid
[2] = measured here: cell number channel AC50, cells fed with added oleic acid

| Compound | cell number change [%] | AC50 [1] | AC50 [2] |
| --- | --- | --- | --- |
| Nc1cc(S(=O)(=O)C(F)(F)F)ccc1C(=O)O | 3.03 | 1.84 µM [rising, partial curve] |  |
| O=C(N/N=C/c1ccc(-c2cccc(C(F)(F)F)c2)o1)c1ccccc1O | -11.7 | 7.31 µM [falling, single point] |  |
| CCOC(=O)c1cnc2ccc(OCC)cc2c1N1CCN(c2ccccc2OC)CC1 | 79.8 | 10.3 µM [rising, partial curve] | 2.06 µM [rising, full curve, poor fit] |
| N=c1n(CCN2CCCCC2)c2ccccc2n1CC(O)c1cccc(Br)c1 (centres undefined) | -36.5 | 29.1 µM [rising, partial curve] | 23.1 µM [falling, single point] |
| Cc1c(Cl)cccc1NC(=S)N1CCc2ccccc2C1 | 1.23 |  |  |
| CCSc1nnc(-c2cc(Br)ccc2NC(C)=O)c(=O)[nH]1 | -4.63 |  | 6.51 µM [rising, single point] |
| C/C(=C\C(=O)O)CC(=O)O | -68.2 | 29.1 µM [falling, single point] | 20.6 µM [falling, single point] |
| COc1ccc(/C=N/Nc2nnc(Cc3ccc(OC)c(OC)c3)c(=O)[nH]2)cc1 | 18.2 | 0.366 µM [rising, partial curve] |  |
| CC1(C)CSC(=NCCc2ccccc2)N1C(=O)c1ccc(C#N)cc1 |  | 2.06 µM [falling, partial curve] |  |
| c1ccc(C2CN3CCSC3=N2)cc1 (centres undefined) | -20.6 | 29.1 µM [falling, partial curve, poor fit] |  |
| CCOC(=O)C1=C(C)NC(=S)NC1c1cccs1 (centres undefined) | 17.2 | 0.461 µM [falling, full curve] |  |
| Cc1ccc(S(=O)(=O)NN/C(=N/S(=O)(=O)c2ccccc2)c2ccccc2)cc1 |  | 0.517 µM [falling, partial curve] |  |
| O=C(CSC1=Nc2ccccc2C2CC=NN12)Nc1ccc2c(c1)OCO2 (centres undefined) | 57.9 | 2.59 µM [rising, full curve] |  |
| CC(C)(Oc1ccc(Cl)cc1)C(=O)NCC(c1ccco1)N1CCCCC1 (centres undefined) | -14.1 |  |  |
| N#CC1=C(Nc2ccccc2)SC=C(c2ccc(Br)cc2)N=C1N1CCOCC1 | -6 |  |  |
| O=C(CCCCn1c(=O)[nH]c2ccsc2c1=O)NCCc1ccccc1 | -13.4 | 2.06 µM [falling, full curve, poor fit] |  |
| O=C(O)CCC(=O)N1CCC(C(=O)c2cccc(Cl)c2)CC1 | -5.69 |  |  |
| Cc1cc(C(=O)OCC(=O)c2ccc3c(c2)NC(=O)CO3)c2ccccc2n1 | 39.7 |  | 20.6 µM [rising, partial curve, poor fit] |
| COc1c(C)cc(S(=O)(=O)NCc2ccccn2)c(C)c1C | 20.1 | 29.1 µM [rising, single point] |  |

| Compound | cell number change [%] | AC50 [1] | AC50 [2] |
| --- | --- | --- | --- |
| c1ccc(CNc2ncnc3nc[nH]c23)nc1 |  |  | 1.84 µM [rising, partial curve] |
| COc1ccccc1NC(=O)CSC1CC(=O)N(c2ccc3c(c2)OCO3)C1=O (centres undefined) | -2.89 | 29.1 µM [rising, single point] | 1.3 µM [rising, partial curve] |
| COc1ccc(-c2nnn(Cc3nc(N)nc(N4CCCCC4)n3)n2)cc1 |  | 6.51 µM [rising, partial curve, poor fit] |  |
| Cc1ccn2c(C(=O)N/N=C/c3ccc(CNC(=O)C(=O)Nc4ccc(C)c(C)c4)o3)c(C)nc2c1 | 15.6 | 1.46 µM [rising, full curve, poor fit] | 3.26 µM [rising, partial curve] |
| CCCC(=O)N(CCN(Cc1ccccc1)C(=O)CCC)Cc1ccccc1 | 6.5 | 0.103 µM [falling, full curve, poor fit] |  |
| C=C(C)c1cccc(C(C)(C)NC(=O)NCc2ccncc2)c1 | -21.9 | 14.6 µM [falling, partial curve, poor fit] |  |
| O=C1/C(=C2/NCCN2C2CC(=O)N(c3ccccc3)C2=O)CC/C1=C\c1ccccc1 (centres undefined) | -18.8 | 0.92 µM [falling, full curve, poor fit] |  |
| CN(C)S(=O)(=O)N(CC(=O)Nc1ccc(S(=O)(=O)N2CCCC2)cc1)c1ccccc1 | -54.4 | 0.58 µM [falling, single point] | 25.9 µM [falling, partial curve] |
| CCOc1ccc(CCNC(=O)c2ccc3ccccc3n2)cc1OCC |  | 29.1 µM [falling, single point] |  |
| Cc1cccc(OCc2n[nH]c(=S)n2C2CCCCC2)c1 | -34.4 | 18.4 µM [falling, single point] | 20.6 µM [falling, single point] |
| O=C1CSc2ccccc2N1Cc1ccc(F)cc1 | 7.78 | 0.00461 µM [rising, full curve, poor fit] |  |
| Cc1ccc(NCC(=O)Nc2ccc(Br)cc2)cc1F | -35.2 | 13 µM [falling, single point] | 11.6 µM [falling, partial curve] |
| Cc1ccc(CN2CCNC2=O)cc1 | -45.1 | 1.3 µM [falling, partial curve, poor fit] | 29.1 µM [falling, single point] |
| CCOC(=O)N1CCN(C2=Nc3cccc4cccc2c34)CC1 | -8.84 |  |  |
| Cn1ncc2c(NNC(=O)c3ccc(O)cc3)ncnc21 | -23.7 | 20.6 µM [falling, partial curve, poor fit] |  |
| O=C(CCCOc1ccccc1)N1CCc2ccccc2C1 |  |  | 6.51 µM [falling, single point] |
| Cc1nn(CC(=O)N2CCOCC2)c(C)c1[N+](=O)[O-] | 8.44 | 0.103 µM [rising, full curve, poor fit] |  |
| CCC1Sc2ccc(S(=O)(=O)CCC(=O)N3CCc4ccccc43)cc2NC1=O (centres undefined) | -1.47 | 29.1 µM [rising, single point] |  |
| CNC(=S)N1N=C(c2ccc(C)cc2)CC1c1ccc(Cl)cc1 (centres undefined) |  | 0.82 µM [rising, partial curve] | 0.58 µM [rising, full curve] |

Exported as comma-separated lines: part of the list above
Compound,cell number change [%],AC50 [1],AC50 [2]
CN(C)S(=O)(=O)N(CC(=O)Nc1ccc(S(=O)(=O)N2CCCC2)cc1)c1ccccc1,-54.4,"0.58 µM [falling, single point]","25.9 µM [falling, partial curve]"
CCOc1ccc(CCNC(=O)c2ccc3ccccc3n2)cc1OCC,,"29.1 µM [falling, single point]",
Cc1cccc(OCc2n[nH]c(=S)n2C2CCCCC2)c1,-34.4,"18.4 µM [falling, single point]","20.6 µM [falling, single point]"
O=C1CSc2ccccc2N1Cc1ccc(F)cc1,7.78,"0.00461 µM [rising, full curve, poor fit]",

Next part.

| Compound | cell number change [%] | AC50 [1] | AC50 [2] |
| --- | --- | --- | --- |
| CCN1CCN(c2ccc(S(=O)(=O)N3CCOCC3)cc2NC(=O)CCSC)CC1 | 1.65 | 1.84 µM [falling, partial curve] | 0.00461 µM [falling, full curve, poor fit] |
| Cc1nn(C(C)C(=O)O)c2ccccc12 (centres undefined) | -118 | 23.1 µM [falling, partial curve] | 25.9 µM [falling, partial curve] |
| O=C1CN(C(=O)CC2C(=O)NCCN2Cc2ccccc2C(F)(F)F)CCN1 (centres undefined) | 23.5 |  |  |
| Oc1ccc(Oc2ccc3c(C(F)(F)F)cc(C(F)(F)F)nc3n2)cc1 | -11.3 | 29.1 µM [falling, single point] |  |
| N=C1C(c2nc3ccccc3s2)=C(O)CN1NC(=O)c1c[nH]c2ccccc12 | -11.5 | 29.1 µM [falling, single point] |  |
| COc1ccc(Cl)cc1NC(=O)CN(C)C(=O)c1ccc2c(c1)CC(c1ccccc1)OC2=O (centres undefined) | -7.34 | 6.51 µM [rising, single point] | 1.46 µM [rising, full curve] |
| O=C(c1ccc([N+](=O)[O-])c(CS(=O)(=O)c2ccc(Cl)cc2)c1)N1CCCCC1 | 20.6 |  | 4.11 µM [rising, partial curve, poor fit] |
| S=C(NCCN1CCOCC1)N/N=C/c1ccccc1 | 47.5 |  | 9.2 µM [rising, partial curve, poor fit] |
| COc1ccc(C2CC(=O)CC(=O)C2n2cncn2)cc1 (centres undefined) | 4.04 |  |  |
| COc1ccc(-c2cc(C(=O)N3CCN(c4ccccn4)CC3)c3ccccc3n2)cc1 | -28.6 |  |  |
| COc1ccc(CNC(=O)COC(=O)/C=C/c2ccc(Cl)cc2)cc1 | -26.1 | 20.6 µM [falling, single point] |  |
| Cc1onc(-c2ccccc2Cl)c1C(=O)N(Cc1nc(-c2ccccc2)no1)C1CCCCC1 | 108 | 25.9 µM [rising, single point] | 7.31 µM [rising, partial curve] |
| Cc1ccc(C)c(N2CCN(S(=O)(=O)c3cc4c(cc3C)NC(=O)CO4)CC2)c1 | -1.44 | 0.00651 µM [falling, full curve, poor fit] |  |
| CCc1c(C)nc2cc(-c3ccc(OC)c(OC)c3)nn2c1N1CCCC1 | -42.1 | 16.4 µM [falling, partial curve] | 9.2 µM [falling, partial curve, poor fit] |
| CCN(CCCNC(=O)CN1C(=O)COc2ccccc21)c1ccccc1 | 9.2 | 29.1 µM [falling, single point] |  |
| COC(=O)c1ccc(SCC(=O)NC2CCCCC2)c([N+](=O)[O-])c1 | 11 | 0.461 µM [rising, full curve, poor fit] |  |
| O=C(c1c(F)cccc1F)N(Cc1cccs1)C1CCCC1 |  | 0.00461 µM [rising, full curve, poor fit] |  |
| CCn1cc(C(=O)NCCC(C)C)c(=O)c2cc(F)c(N3CCN(C(=O)c4ccco4)CC3)cc21 | -23.5 | 6.51 µM [falling, partial curve] | 0.651 µM [falling, full curve, poor fit] |
| Cc1cccc(NC(=O)C2CCN(C(=O)NCc3ccccc3)CC2)c1C | 25.2 | 29.1 µM [rising, single point] |  |
